Non-standard residues stand in square brackets, D forms with d. Nle = CCCC[C@H](N)C(=O)O
Assay: general procedure: Boc solid-phase peptide synthesis; p-methylbenzhydrylamine (pMBHA) resin; DCC/HOBt; BOP/DIEA for on-resin cyclization
Settings: whole synthesis

| Substance | isolated yield [%] | final HPLC purity (TLC in three solvents and analytical HPLC (Vydac 218TP104 C18) at 280 nm and 230 nm) [% pure] |
| --- | --- | --- |
| Ac-Nle^4, Asp^5, Lys^10 !-alpha-MSH4-10 NH2 | 37 | – |
| Ac-Nle^4, Asp^5, D-Phe^7, Dpr^10 !-alpha-MSH4-10 NH2 | 36 | – |
| Ac-SYS[Nle]DH[dF]RWKGPV-NH2 | – | 90 |
| Ac-Nle^4, Lys^10 !-alpha-MSH4-10 NH2 | 40 | – |
| Ac-Nle^4, D-Phe^7, Lys^10, Gly^11 !-alpha-MSH4-13 NH2 (SEQ. NO. 3) | 22 | – |
| Ac-{Nle^4, Asp^5, D-Phe^7, Dab^10 !-alpha-MSH4-10 NH2 | 36 | – |

From patent US5714576A (Competitive Technologies, Inc., priority 1997, dated 1998)
